Measurements as given in US20120231006A1.
Results are given in words; binding and its absence hold for the method and conditions named. Some entries that bind do so weakly or less than the wild type.

Sequences of proteins named here, by UniProt entry; tags and fusion partners are left off. A change or cut given only in a name is not applied to a line headed by its entry.
UniProt Q96D31: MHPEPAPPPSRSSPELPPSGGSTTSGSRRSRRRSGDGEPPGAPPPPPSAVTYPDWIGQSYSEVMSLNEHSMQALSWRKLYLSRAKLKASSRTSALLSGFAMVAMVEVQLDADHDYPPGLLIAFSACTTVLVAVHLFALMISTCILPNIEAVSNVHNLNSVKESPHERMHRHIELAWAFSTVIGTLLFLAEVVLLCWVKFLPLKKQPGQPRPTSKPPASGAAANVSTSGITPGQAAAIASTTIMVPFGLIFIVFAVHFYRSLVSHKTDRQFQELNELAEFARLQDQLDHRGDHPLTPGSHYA

Columns and labels:
[1] = biological target: cynomolgus Orai1 (cynomolgus monkey); assay: FACS, 293EBNA transfectants, 2 µg mAb
[2] = biological target: human Orai1 (N223S) variant protein (human) (UniProt Q96D31); assay: FACS, 293EBNA transfectants, 2 µg mAb
[3] = biological target: human Orai1 (human) (UniProt Q96D31); assay: KinExA, percent free mAb after equilibration of 30 pM Ab with AM1-CHO/hOrai1/hSTIM1-YFP cells at 3E4, 1E5 and 3E5 cell/ml
[4] = biological target: human Orai1 (human) (UniProt Q96D31); assay: FACS, AM1-CHO/Orai1 cells
[5] = biological target: human Orai1 (human) (UniProt Q96D31); assay: FACS, AM1/hOrai1 cells, recombinant mAb
[6] = biological target: human Orai1 (human) (UniProt Q96D31); assay: KinExA free-mAb rank, AM1-CHO/hOrai1/hSTIM1-YFP cells

binding [1]: binds | binding [2]: binds | binding [3]: binds | binding [4]: binds | binding [5]: binds | binding [6]: binds
B1: mAb 5H3.1 (antibody, human IgG2, lambda, V domains shown)
VH: QVQLVQSGAEVKKPGASVKVSCKASGYTFTDYYMNWVRQAPGQGLEWMGWINPNSGGTKYAQKFQGRVTMTRDTSIRTAYMELSRLRSDDTAVYYCAREYGGNSDWFDPWGQGTLVTVSS
VL: QSVLTQPPSVSGAPGQRVTISCTGSSSNIGAGYDVHWYQQLPGTAPKLLIYGNSNRPSGVPDRFSGSKSGTSASLAITGLQAEDEADYYCQSYDNRLSDSVVIGGGTKLAVQG
